Laboratory results reported in paper PMC4301919, “Helical Defects in MicroRNA Influence Protein Binding by TAR RNA Binding Protein”.
Tags and fusion partners may be left off the protein sequences shown.

Legend:
TRBP-dsRBD1 = system: T1, TRBP-dsRBD1; assay: EMSA; conditions: apparent Kd, nH >1; 50 mM sodium cacodylate pH 7.0, 50 mM potassium glutamate, 5% glycerol; EMSA 0.5 pM RNA, 30 min at room temperature, gel 0.25X TBE at 10 C; recombinant protein; residues 9-85; label: 5'-32P top strand (EMSA)
T1 sequence (looked up): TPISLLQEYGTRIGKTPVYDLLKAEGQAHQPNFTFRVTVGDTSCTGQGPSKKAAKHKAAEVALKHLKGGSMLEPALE

TRBP-dsRBD2 = system: T2, TRBP-dsRBD2; assay: EMSA; conditions: apparent Kd, nH >1; 50 mM sodium cacodylate pH 7.0, 50 mM potassium glutamate, 5% glycerol; EMSA 0.5 pM RNA, 30 min at room temperature, gel 0.25X TBE at 10 C; recombinant protein; residues 139-215; label: 5'-32P top strand (EMSA)
T2 sequence (looked up): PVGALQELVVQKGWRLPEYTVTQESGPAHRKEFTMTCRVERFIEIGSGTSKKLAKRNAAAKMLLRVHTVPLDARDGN

## GUCAGCAGUGCCUUAG / CUAAGGCACUGCUGAC [ds16]
TRBP-dsRBD1
  Kd: > 15 µM
TRBP-dsRBD2
  Kd: > 11 µM
